# Data as given in the supplement of paper PMC3334620.
# Over roughly 33,000 sequences, “E-score (-0.5 to 0.5)” has its median near -0.0059; the highest 2% begin near 0.26. This is one part of the list.
# Target: T1, Cin5 (UniProt P40917)
# T1 sequence: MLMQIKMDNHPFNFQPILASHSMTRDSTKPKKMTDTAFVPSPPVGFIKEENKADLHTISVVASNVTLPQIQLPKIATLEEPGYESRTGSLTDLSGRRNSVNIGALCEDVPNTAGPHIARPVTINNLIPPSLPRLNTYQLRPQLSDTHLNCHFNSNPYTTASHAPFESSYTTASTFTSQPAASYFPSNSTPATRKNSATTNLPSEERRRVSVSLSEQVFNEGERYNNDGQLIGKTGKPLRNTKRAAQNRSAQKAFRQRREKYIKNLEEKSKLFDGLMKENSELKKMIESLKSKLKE
# Assay: PBM E-score (8-mer binding enrichment) (E-score (-0.5 to 0.5)); higher = stronger / more preferred TF binding
# Conditions: protein concentration: 100 nM; construct: GST-full length
# In short: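 Masliner-normalised scans of fluorescent anti-GST signal were the basis for scoring. That signal came from GST-tagged yeast transcription factors applied at about 100-200 nM to double-stranded universal all-10-mer Agilent arrays on fresh or once-stripped slides. Each ungapped eight-base word, pooled with its reverse complement, received an E-score from the Universal PBM Analysis Suite.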
row,Sequence,PBM E-score
1,AAATCGGG,0.0762
2,ATATCTAA,0.206
3,CTCGGAGA,-0.0921
4,GTCAGATA,0.0332
5,ACGCTCAC,0.0871
6,CTGATTGC,0.0534
7,GATACAGC,0.03
8,GAACTACC,0.0721
9,AGAACAGC,-0.0429
10,ATCATAGC,0.157
11,GAACACGC,0.036
12,CTGCTGAC,0.26
13,CTAATCTA,0.00395
14,GTCCTAGA,-0.273
15,TGACGTCA,0.425
16,AAACCATG,0.0848
17,ACCTTTCA,0.0112
18,GACGATCC,0.0343
19,ACGCGGCG,0.0773
20,CTATGGGA,-0.104
21,AAGTGCCC,-0.0728
22,AATCTCGC,0.219
23,AAGCACAA,0.186
24,CAGCATTA,0.0754
25,CTAGCCAG,-0.0706

row,Sequence,PBM E-score
1,GGCTATAC,-0.0436
2,AACTTTTG,0.0961
3,GATGTGGA,0.164
4,GAATCCGA,0.0296
5,AGGTGAAC,-0.15
6,ACCTAACT,0.0466
7,CTTCGTAC,0.0683
8,ATCATTCC,0.125
9,GACCCCCA,-0.492
10,CCTCAACG,-0.265
11,CTACAAAC,0.043
12,ATGTTCGG,0.112
13,ACGTGATC,0.137
14,CAAACATA,0.097
15,CTATACTA,0.198
16,AGACCAAA,-0.0639
17,AAGGAGAG,-0.317
18,GCAATTAA,0.139
19,AAGGACTC,-0.187
20,AAACGTAG,0.0276
21,AACAGTTG,0.0695
22,ACCCGCCT,-0.184
23,ATTAGCGC,0.172
24,ATCCACTC,0.198
25,TCGAGCCA,-0.153

row,Sequence,PBM E-score
1,CTCCAGTC,-0.113
2,CGGAAACG,0.0591
3,AGTGAGGG,-0.107
4,ACCTTTTG,-0.103
5,ACGGCATA,0.143
6,GCTATCAC,-0.00053
7,GTACGCGA,0.0137
8,TGGCCACA,-0.00341
9,ACAAATTG,0.248
10,CCTGGTTA,-0.0485
11,ATATCCGG,0.066
12,TCTCAGCA,-0.182
13,TATTCGGA,0.145
14,GAACCGGA,0.0972
15,TGGGCGAA,-0.0541
16,CGACCGAC,-0.028
17,AGGATGCA,-0.0504
18,AGTAATCA,0.312
19,ATCCGTTA,0.29
20,CAAAGACA,0.0671
21,ACGTCCTA,0.0685
22,GAACGCAC,0.0283
23,CCACTCGC,-0.119
24,CAGTCGGG,-0.107
25,TACGCACA,0.0166

row,Sequence,PBM E-score
1,CGCTGGGC,-0.295
2,ACAAATAA,0.204
3,CGATCGCA,0.0985
4,AGGTCCGC,-0.254
5,AAAGCTAA,0.00062
6,GGACCTGA,-0.107
7,ATGCAGGG,-0.119
8,ATTCAGGG,0.0301
9,CGCATTGA,0.109
10,CGGATGAC,0.16
11,CTCTGAAC,-0.215
12,CGCTTGAC,0.00564
13,CGTATTAC,0.214
14,GAGTTTAA,0.128
15,GACCCTAA,-0.116
16,ACTTCTTC,0.0453
17,AACTACAG,0.065
18,GAGCAAGC,-0.199
19,TCAGAAAA,0.0264
20,AAGGTCAC,-0.0793
21,CCTGCTGA,0.25
22,CCCCTCTA,-0.239
23,AATCTAGT,0.171
24,AGGGGGAA,-0.263
25,AAGGTTGA,0.0486

row,Sequence,PBM E-score
1,CCGAACAA,0.0637
2,CGTTCACA,0.0858
3,CTCAGCAG,-0.0655
4,CACCAGGA,-0.0754
5,TACGGTGA,0.0829
6,CTCTGCCC,-0.0596
7,AAGGACTA,-0.0176
8,GCCAGGGC,-0.336
9,AGCGGGCC,-0.04
10,CGCCCTCC,-0.252
11,CGAGGGGC,-0.256
12,CCCACTCG,-0.249
13,ACCTTTCC,-0.0829
14,ATTAGTTC,0.217
15,TAGGGCCA,-0.121
16,AAAAGTTG,0.0199
17,TAGGCTGA,-0.018
18,CGCCAATC,-0.00585
19,ACCGTCAG,-0.157
20,CAAACTCA,0.0919
21,CGCAGGAC,-0.018
22,CATATATG,0.114
23,ATACAGCA,0.148
24,TACTTGGA,0.123
25,GTGACGGA,0.0528

row,Sequence,PBM E-score
1,CAGCCGGG,-0.135
2,CGCGACTA,0.0315
3,TATGTTAA,0.121
4,GGCCCTGA,-0.147
5,AAAAGACT,-0.205
6,AATGTCAT,0.108
7,GACGAGAC,0.0172
8,CGCTCTAA,-0.0655
9,TAGAGTCA,-0.294
10,GTTTTCCA,0.0639
11,ATGCTCCC,-0.265
12,ATCGGACG,-0.0954
13,GGTGAAGA,-0.0933
14,ACTAGCGG,-0.0618
15,CAAGGAAA,0.0493
16,GATGGCGA,0.0413
17,AGAATACA,0.18
18,AGGGCAGG,-0.227
19,CGGGAGGA,-0.0584
20,ACCTGGCA,-0.0922
21,ATCTTATG,0.0173
22,ACTGGGTA,-0.112
23,AAATTTCA,-0.14
24,GTAGACCA,-0.101
25,AATATCGT,0.193

# Another view of some results above:
row | Sequence | PBM E-score
22 | GAACGCAC | 0.0283
23 | CCACTCGC | -0.119
24 | CAGTCGGG | -0.107
25 | TACGCACA | 0.0166

# (continued)

row,Sequence,PBM E-score
1,TGCTAACA,-0.0305
2,ATTGGATA,0.129
3,CGTTTCAA,-0.0888
4,GGGCACCC,-0.341
5,ACCAGTAT,0.0723
6,TACCACTA,0.0357
7,AAGAAACA,0.213
8,ATCAAATC,0.222
9,CAGGACAG,-0.0132
10,AATTGAGA,0.13
11,CCGATTAC,0.23
12,GAGGCCAA,-0.0394
13,CGCCCGTA,-0.162
14,CGCCTCGC,-0.0625
15,ACCACGAG,-0.0373
16,AGCTTGTC,-0.161
17,AATGATCG,0.0809
18,ATTTATAG,0.0626
19,ATGGGACA,0.0583
20,GCACGGCC,-0.0231
21,ACATTAGC,0.165
22,ACTATGAT,0.199

# Quoted at random: five records from the list, in no set order.
row,Sequence,PBM E-score
25,TACGCACA,0.0166
21,ACATTAGC,0.165
11,ATGCTCCC,-0.265
4,AGGTCCGC,-0.254
20,CAAAGACA,0.0671
